Results published in PubChem BioAssay AID540256 (National Center for Advancing Translational Sciences (NCATS), 2011).
Hit rate of the full screen: of about 300,000 compounds, about 3,700 (1.2%) were called active. Inconclusive results, whose numbers are uncertain, are shown with a selection of clear calls. Calls follow the shape of the full dose curve; tested in HEK293 cells. Where the call is inconclusive, the potency comes from a doubtful curve fit.

Assay: qHTS for Inhibitors of binding or entry into cells for Lassa Virus; also: nearly all actives have a fitted effect of over 50% in size
Conditions: Lassa virus pseudotype entry inhibition, cell reporter; series mostly up to 37.9 µM
Potency is read from the fitted curve at half-maximal effect.

| Structure (SMILES) | Potency |
| --- | --- |
| Cc1cccc(NC(=O)CCNS(=O)(=O)c2ccc3c(c2)CCCC(=O)N3)c1C | inconclusive: 2.82 µM [activator, partial curve, poor fit] |
| O=C(/C=C/c1cccc(Cl)c1)c1nc2ccccc2[nH]1 | inconclusive: 29.1 µM [inhibitor, single point] |
| COc1cccc(-n2c(C)nc3c(cnn3-c3ccc(C)cc3)c2=O)c1 | inactive |
| COc1ccc(NC(=O)/C(C#N)=C/c2ccc(C)o2)cc1 | inactive |
| CC(C)C(=O)Nc1ccc(NC(=O)c2ccc([N+](=O)[O-])cc2Cl)cc1 | inactive |
| Cc1cc(-c2ccc(C)c(S(=O)(=O)N(Cc3cccs3)C(C)C)c2)on1 | inactive |
| CCN(CC)CCNC(=O)c1cc2cc(Br)ccc2s1 | inactive |
| CCOC(=O)c1cc(C(=O)OCC)c2ccccn2c1=O | inactive |
| O=C(N/N=C/C(Br)=C/c1ccccc1)c1cc(-c2ccco2)[nH]n1 | inconclusive: 11.2 µM [inhibitor, partial curve, poor fit] |
| Cc1ccc(CNC(=O)C(=O)NCC(c2cccs2)S(=O)(=O)c2cccs2)cc1 (configuration not stated) | inconclusive: 10 µM [inhibitor, partial curve, poor fit] |
| Cn1c(Oc2ccc(F)cc2F)c(C=O)c2ccccc21 | inconclusive: 35.5 µM [inhibitor, single point] |
| COc1ccc(N2C(=O)CSC23C(=O)N2CCCc4cccc3c42)cc1 (configuration not stated) | inconclusive: 29.1 µM [activator, single point] |
| CCN1C(=NCCc2ccc(Br)cc2)N[C@@H](c2ccccc2)[C@H](C(=O)OC)[C@H]1C | inconclusive: 1.19 µM [activator, single point] |
| O=C(Nc1cccnc1Cl)c1ccc(Cl)cc1 | inactive |
| Cc1ccc(-c2nc3ccccc3c(=O)n2-c2ccncc2)cc1 | inactive |
| CC(C(=O)Nc1ccccc1Sc1ccccc1)N(c1ccccc1)S(C)(=O)=O (configuration not stated) | inconclusive: 11.2 µM [inhibitor, partial curve, poor fit] |
| Cc1cc(C(=O)N2CCCC(CCC(=O)N3CCN(c4ccccn4)CC3)C2)c(C)o1 (configuration not stated) | inactive |
| COc1ccc(COC(=O)N/N=C(\C)CC(=O)Nc2c(C)cc(C)cc2C)cc1 | active: 7.3 µM |
| O=C1CCCCN1CCC(=O)N1CCCC(N2CCN(c3cccc(Cl)c3)CC2)C1 (configuration not stated) | inactive |
| Cc1cc(N2CCCCC2)nc2ccccc12 | inactive |
| Cc1cc2c(cc1C)C(c1cccc(OC(C)C)c1)CC(=O)N2 (configuration not stated) | inconclusive: 11.2 µM [inhibitor, partial curve, poor fit] |
| O=C(COC(=O)/C=C/c1ccc(Cl)cc1Cl)Nc1ccc2c(c1)OCCO2 | inconclusive: 35.5 µM [inhibitor, single point] |
| COc1ccc(NC(=O)CN(c2cccc(C)c2C)S(=O)(=O)c2ccccc2)cc1OC | inconclusive: 12.6 µM [inhibitor, partial curve, poor fit] |
| CC(=O)c1cccc(NC(=O)c2noc3c2CC(C)CC3)c1 (configuration not stated) | inactive |

A second format for 15 compounds above.
Structure (SMILES)	Potency
O=C(N/N=C/C(Br)=C/c1ccccc1)c1cc(-c2ccco2)[nH]n1	inconclusive: 11.2 µM [inhibitor, partial curve, poor fit]
Cc1ccc(CNC(=O)C(=O)NCC(c2cccs2)S(=O)(=O)c2cccs2)cc1 (configuration not stated)	inconclusive: 10 µM [inhibitor, partial curve, poor fit]
Cn1c(Oc2ccc(F)cc2F)c(C=O)c2ccccc21	inconclusive: 35.5 µM [inhibitor, single point]
COc1ccc(N2C(=O)CSC23C(=O)N2CCCc4cccc3c42)cc1 (configuration not stated)	inconclusive: 29.1 µM [activator, single point]
CCN1C(=NCCc2ccc(Br)cc2)N[C@@H](c2ccccc2)[C@H](C(=O)OC)[C@H]1C	inconclusive: 1.19 µM [activator, single point]
O=C(Nc1cccnc1Cl)c1ccc(Cl)cc1	inactive
Cc1ccc(-c2nc3ccccc3c(=O)n2-c2ccncc2)cc1	inactive
CC(C(=O)Nc1ccccc1Sc1ccccc1)N(c1ccccc1)S(C)(=O)=O (configuration not stated)	inconclusive: 11.2 µM [inhibitor, partial curve, poor fit]
Cc1cc(C(=O)N2CCCC(CCC(=O)N3CCN(c4ccccn4)CC3)C2)c(C)o1 (configuration not stated)	inactive
COc1ccc(COC(=O)N/N=C(\C)CC(=O)Nc2c(C)cc(C)cc2C)cc1	active: 7.3 µM
O=C1CCCCN1CCC(=O)N1CCCC(N2CCN(c3cccc(Cl)c3)CC2)C1 (configuration not stated)	inactive
Cc1cc(N2CCCCC2)nc2ccccc12	inactive
Cc1cc2c(cc1C)C(c1cccc(OC(C)C)c1)CC(=O)N2 (configuration not stated)	inconclusive: 11.2 µM [inhibitor, partial curve, poor fit]
O=C(COC(=O)/C=C/c1ccc(Cl)cc1Cl)Nc1ccc2c(c1)OCCO2	inconclusive: 35.5 µM [inhibitor, single point]
COc1ccc(NC(=O)CN(c2cccc(C)c2C)S(=O)(=O)c2ccccc2)cc1OC	inconclusive: 12.6 µM [inhibitor, partial curve, poor fit]

Following part.

| Structure (SMILES) | Potency |
| --- | --- |
| CC(C)c1ccc(NC(=O)C(c2ccc3c(c2)OCO3)N2CCN(C(=O)c3ccco3)CC2)cc1 (configuration not stated) | inconclusive: 7.94 µM [inhibitor, partial curve] |
| CCc1ccc2nc(N(Cc3cccnc3)C(=O)c3cccs3)sc2c1 | inactive |
| COc1ccc(/C=C/C(=O)NCc2cn(C)nc2C)cc1COc1ccc(Cl)cc1Br | inconclusive: 20.6 µM [inhibitor, single point] |
| O=P(c1ccccc1)(c1ccccc1)N1CCCCC1 | inconclusive: 10 µM [activator, partial curve, poor fit] |
| O=[N+]([O-])c1nn(-c2ccc3c(c2)OCCO3)n(O)c1=NCc1ccc(F)cc1 | inconclusive: 0.146 µM [activator, full curve, poor fit] |
| CCCC(=O)Nc1ccc(NC(=O)c2sc3ccccc3c2Cl)cc1 | inconclusive: 35.5 µM [inhibitor, single point] |
| Cc1cnc(NC(=O)CSc2c(Cl)cccc2Cl)s1 | inconclusive: 35.5 µM [inhibitor, single point] |
| CCOC(=O)C1(C)C=C(Nc2ccc(C)cc2)C(=O)N1c1ccccc1 (configuration not stated) | inactive |
| N=C1C(c2nc3ccccc3[nH]2)=C(O)CN1C1CCCCC1 | inactive |
| COc1ccc(CCC(=O)Nc2nccs2)cc1OC | inactive |
| CCN(CC)CCN(C(=O)c1ccc(C(=O)OC)cc1)c1nc2ccc(Cl)cc2s1 | inactive |
| CCn1cc(C(=O)Nc2ccc(Cl)cc2Cl)cn1 | inactive |
| O=C1C(Cl)=C(N2CCN(c3ccccc3[N+](=O)[O-])CC2)C(=O)c2ccccc21 | inconclusive: 20 µM [inhibitor, single point] |
| Cc1cccc(NC(=O)CN(C)S(=O)(=O)c2ccc(Br)cc2)n1 | inconclusive: 18.3 µM [activator, partial curve, poor fit] |
| CC(=O)c1ccc(NC(=O)CSc2nccn2Cc2ccco2)cc1 | inconclusive: 5.62 µM [activator, single point] |
| COc1ccc(NC(=O)c2ccc(S(=O)(=O)N(C)C)cc2)cc1 | inactive |
| CC(C)c1ccc(S(=O)(=O)Nc2ccc(O)c(Sc3nc4ccccc4s3)c2)cc1 | inconclusive: 2.24 µM [inhibitor, partial curve, poor fit] |
| O=C(CSc1nnc(-c2cccs2)o1)Oc1ccc(Cl)cc1 | inconclusive: 12.6 µM [activator, partial curve, poor fit] |
| COc1ccc2nc(NC(=O)CSc3nnc(C)s3)sc2c1 | inactive |
| CC1(C)Cc2cccc(OCC(=O)O)c2O1 | inconclusive: 1.26 µM [inhibitor, single point] |
| CCSc1ncc(C#N)c(N)n1 | inconclusive: 35.5 µM [activator, single point] |
| COc1cc([C@@H]2c3cc4c(cc3[C@H](O)C3COC(=O)[C@@H]32)OCO4)cc(OC)c1OC (some centres not stated) | inconclusive: 0.0164 µM [inhibitor, full curve] |
| C[C@H](NC(=O)c1cc2cc(Cl)ccc2n1C)C(=O)N1CCC(C(=O)O)CC1 | inconclusive: 7.08 µM [activator, full curve, poor fit] |
| O=S(=O)(NCC1CC1)c1cc(Cl)cc(Cl)c1 | inactive |

| Structure (SMILES) | Potency |
| --- | --- |
| CCOC(=O)c1[nH]c(C)c(CN(CCc2ccccc2)C(=O)CCC(=O)O)c1C | inactive |
| CC1CN(C(=O)N2CCC(C(=O)NCCC3=CCCCC3)CC2)c2ccccc2O1 (configuration not stated) | inactive |
| COc1cc2c(=O)c(S(=O)(=O)c3ccc(C)cc3)cn(Cc3cccc(C)c3)c2cc1OC | inconclusive: 10 µM [inhibitor, partial curve] |
| Cc1ccc2[nH]c(C(=O)NCCN3CCCC3)cc2c1 | inactive |
| COc1cc(C(C)=O)ccc1Oc1ncnc2c1cnn2-c1ccccc1 | inconclusive: 1.12 µM [inhibitor, partial curve, poor fit] |
| CCC(C)NC(=O)CSc1nc2scc(-c3ccccc3)c2c(=O)[nH]1 (configuration not stated) | inactive |
| O=C(CCC(=O)Nc1nnc(C2CCCCC2)s1)NCc1cccs1 | inactive |
| Cc1ccc(OCC(=O)Nc2cccc(-c3nnc(-c4ccccc4)o3)c2)c(C)c1 | inconclusive: 29.1 µM [inhibitor, single point] |
| COc1ccc(NC(=O)c2ccc(CNS(=O)(=O)c3ccc4c(c3)C(C)(C)C(=O)N4C)cc2)cc1 | inconclusive: 35.5 µM [inhibitor, single point] |
| CC(C)(C)N/N=C/c1cc(Cl)cc([N+](=O)[O-])c1O | inconclusive: 4.61 µM [activator, partial curve, poor fit] |
| O=C(Nc1ccc(Cl)c(Cl)c1)Nc1ccon1 | inconclusive: 4.47 µM [inhibitor, single point] |
| CCCC(=O)Nc1nc(-c2ccccc2)ns1 | active: 20.6 µM |
| O=C(Nc1ccccc1F)Nc1cccnc1Cl | inconclusive: 11.2 µM [inhibitor, partial curve, poor fit] |
| O=C(CSc1nc2cc(Cl)ccc2s1)N1CCN(C(=O)c2ccco2)CC1 | inconclusive: 35.5 µM [inhibitor, single point] |
| Cn1cc(CCNC(=O)c2ccc3nc(Cc4ccccc4F)oc3c2)cn1 | inactive |
| O=C(N/N=C\c1ccc(Cl)s1)c1cccs1 | inconclusive: 5.01 µM [activator, single point] |
| Cc1ccc2sc(N(CCCN(C)C)C(=O)CN3C(=O)c4ccccc4C3=O)nc2c1C | inconclusive: 35.5 µM [inhibitor, partial curve, poor fit] |
| Cc1ccc(C(=O)CC(=O)COc2ccc(Cl)cc2C)cc1 | inconclusive: 14.1 µM [activator, single point] |
| Cc1ccsc1C(=O)NNC(=O)C1CCCCC1C(=O)O (configuration not stated) | inconclusive: 16.4 µM [activator, single point] |
| Cc1nnc(NC(=O)c2ccc(C)c(S(=O)(=O)N3CCOCC3)c2)s1 | inconclusive: 1.83 µM [inhibitor, partial curve, poor fit] |
| Cn1c(=O)[nH]c(=O)c2c1nc(N1CCN(Cc3ccccc3)CC1)n2CCCc1ccccc1 | inconclusive: 7.3 µM [inhibitor, partial curve, poor fit] |
| CCOc1ccc(CN(C)C(=O)[C@H](Cc2ccccc2)NC(=O)OCc2ccccc2)cc1OC | active: 8.91 µM |
| Cc1ccnc(NC(=O)CCC(=O)c2cccs2)c1 | inconclusive: 1.12 µM [inhibitor, full curve, poor fit] |
| CCCCN(C)C(=O)C1CCC(CNS(=O)(=O)c2ccc3c(c2)CC(C)N3C(C)=O)CC1 (configuration not stated) | inconclusive: 17.8 µM [inhibitor, partial curve, poor fit] |
